According to the supplement of paper PMC8728848:
The other results are listed elsewhere or left out.

Tests used:
Test in all cases: glycan array binding signal (z-score within array); higher = stronger binding
Details in all cases: glycan notation: IUPAC condensed, linker removed
[1] = target: GlcNAc(b1-4)GlcNAc(b1-4)GlcNAc(b1-4)GlcNAc(b1-4)GlcNAc(b1-4)GlcNAc
Outline: (§1)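 Arrays were curated from the Consortium for Functional Glycomics database, 3228 in total, and kept only where the protein sequence was available. Binding is expressed as a within-array Z-score. This score was averaged across arrays of the same protein sequence at different concentrations or buffers and across linkers, and negative values can be read as non-binding.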

[2] = target: GlcNAc(b1-4)[GlcNAc(b1-6)]GalNAc
Outline: as §1

[3] = target: GlcNAc(b1-6)Gal(b1-4)GlcNAc
Outline: as §1

[4] = target: GlcNAc(b1-6)GalNAc
Outline: as §1

[5] = target: GlcNAc6S(b1-3)Gal(b1-4)GlcNAc
Outline: as §1

[6] = target: Kdn(a2-3)Gal(b1-3)GalNAc
Outline: as §1

[7] = target: Kdn(a2-3)Gal(b1-3)GlcNAc
Outline: as §1

[8] = target: Kdn(a2-3)Gal(b1-4)Glc
Outline: as §1

[9] = target: Kdn(a2-3)Gal(b1-4)GlcNAc
Outline: as §1

[10] = target: Kdn(a2-3)Gal(b1-4)[Fuc(a1-3)]GlcNAc
Outline: as §1

[11] = target: Kdn(a2-6)Gal(b1-4)GlcNAc
Outline: as §1

[12] = target: Man(a1-2)Man(a1-2)Man(a1-3)Man
Outline: as §1

[13] = target: Man(a1-2)Man(a1-2)Man(a1-6)[Man(a1-3)]Man
Outline: as §1

[14] = target: Man(a1-2)Man(a1-3)Man
Outline: as §1

[15] = target: Man(a1-2)Man(a1-3)[Man(a1-2)Man(a1-6)]Man
Outline: as §1

[16] = target: Man(a1-2)Man(a1-3)[Man(a1-2)Man(a1-6)]Man(a1-6)[Man(a1-2)Man(a1-2)Man(a1-3)]Man
Outline: as §1

[17] = target: Man(a1-2)Man(a1-3)[Man(a1-2)Man(a1-6)]Man(a1-6)[Man(a1-2)Man(a1-2)Man(a1-3)]Man(b1-4)GlcNAc(b1-4)GlcNAc
Outline: as §1

[18] = target: Man(a1-2)Man(a1-3)[Man(a1-6)]Man(a1-6)[Man(a1-2)Man(a1-3)]Man(b1-4)GlcNAc(b1-4)GlcNAc
Outline: as §1

[19] = target: Man(a1-2)Man(a1-6)[Man(a1-3)]Man(a1-6)[Man(a1-2)Man(a1-2)Man(a1-3)]Man
Outline: as §1

[20] = target: Man(a1-2)Man(a1-6)[Man(a1-3)]Man(a1-6)[Man(a1-2)Man(a1-2)Man(a1-3)]Man(b1-4)GlcNAc(b1-4)GlcNAc
Outline: as §1

[21] = target: Man(a1-3)[Man(a1-6)]Man
Outline: as §1

[22] = target: Man(a1-3)[Man(a1-6)]Man(a1-6)[Man(a1-2)Man(a1-3)]Man(b1-4)GlcNAc(b1-4)GlcNAc
Outline: as §1

[23] = target: Man(a1-3)[Man(a1-6)]Man(a1-6)[Man(a1-3)]Man
Outline: as §1

[24] = target: Man(a1-3)[Man(a1-6)]Man(a1-6)[Man(a1-3)]Man(b1-4)GlcNAc(b1-4)GlcNAc
Outline: as §1

[25] = target: Man(a1-3)[Man(a1-6)]Man(b1-4)GlcNAc(b1-4)GlcNAc
Outline: as §1

[26] = target: Man(a1-3)[Man(a1-6)]Man(b1-4)GlcNAc(b1-4)[Fuc(a1-6)]GlcNAc
Outline: as §1

[27] = target: Man(a1-6)Man
Outline: as §1

[28] = target: Man(b1-4)GlcNAc
Outline: as §1

[29] = target: MurNAc(b1-4)GlcNAc
Outline: as §1

[30] = target: Neu5Ac(a2-3)Gal
Outline: as §1

[31] = target: Neu5Ac(a2-3)Gal(b1-3)GalNAc
Outline: as §1

[32] = target: Neu5Ac(a2-3)Gal(b1-3)GalNAc(b1-3)Gal(a1-4)Gal(b1-4)Glc
Outline: as §1

[33] = target: Neu5Ac(a2-3)Gal(b1-3)GalNAc(b1-4)Gal(b1-4)Glc
Outline: as §1

[34] = target: Neu5Ac(a2-3)Gal(b1-3)GalNAc(b1-4)[Neu5Ac(a2-3)]Gal(b1-4)Glc
Outline: as §1

[35] = target: Neu5Ac(a2-3)Gal(b1-3)GalNAc(b1-4)[Neu5Ac(a2-8)Neu5Ac(a2-3)]Gal(b1-4)Glc
Outline: as §1

[36] = target: Neu5Ac(a2-3)Gal(b1-3)GalNAc6S
Outline: as §1

[37] = target: Neu5Ac(a2-3)Gal(b1-3)GlcNAc
Outline: as §1

[38] = target: Neu5Ac(a2-3)Gal(b1-3)GlcNAc(b1-2)Man
Outline: as §1

[39] = target: Neu5Ac(a2-3)Gal(b1-3)GlcNAc(b1-2)Man(a1-3)[GlcNAc(b1-4)][Neu5Ac(a2-3)Gal(b1-3)GlcNAc(b1-2)Man(a1-6)]Man(b1-4)GlcNAc(b1-4)GlcNAc
Outline: as §1

[40] = target: Neu5Ac(a2-3)Gal(b1-3)GlcNAc(b1-2)Man(a1-3)[Neu5Ac(a2-3)Gal(b1-3)GlcNAc(b1-2)Man(a1-6)]Man(b1-4)GlcNAc(b1-4)GlcNAc
Outline: as §1

[41] = target: Neu5Ac(a2-3)Gal(b1-3)GlcNAc(b1-2)[Neu5Ac(a2-3)Gal(b1-3)GlcNAc(b1-4)]Man(a1-6)[Neu5Ac(a2-3)Gal(b1-3)GlcNAc(b1-2)Man(a1-3)]Man(b1-4)GlcNAc(b1-4)GlcNAc
Outline: as §1

[42] = target: Neu5Ac(a2-3)Gal(b1-3)GlcNAc(b1-3)Gal(b1-3)GlcNAc
Outline: as §1

[43] = target: Neu5Ac(a2-3)Gal(b1-3)GlcNAc(b1-3)Gal(b1-4)GlcNAc
Outline: as §1

[44] = target: Neu5Ac(a2-3)Gal(b1-3)GlcNAc(b1-3)GalNAc
Outline: as §1

[45] = target: Neu5Ac(a2-3)Gal(b1-3)GlcNAc(b1-6)GalNAc
Outline: as §1

B1: Pwp6 (Candida glabrata) (protein)
chain: MGSSHHHHHHSSGLVPRGSHMASANLPKLTNICQIPDNVKKTSGFKGEIRRIGLFPPGGDYTYLLKFPSTGSTASDTISLTTKPQLSTSGWFPSLFGHTYFIKADLLVYMVAYFVPTETGEYTFKLVNSDDAAVMYVGNPSAFPCGSIDTWPEPRKEDINVCDKISASTKLYMEKGLAYPVRLVWYNGGGDGQFNAQFIDPSGTTHTDWNGYVWQYDACTDCDYK
- glycan array binding signal (z-score) [1]: -0.261
- glycan array binding signal (z-score) [2]: -0.583
- glycan array binding signal (z-score) [3]: -0.115
- glycan array binding signal (z-score) [4]: -0.434
- glycan array binding signal (z-score) [5]: -0.643
- glycan array binding signal (z-score) [6]: 0.281
- glycan array binding signal (z-score) [7]: -0.179
- glycan array binding signal (z-score) [8]: -0.386
- glycan array binding signal (z-score) [9]: -0.49
- glycan array binding signal (z-score) [10]: -0.259
- glycan array binding signal (z-score) [11]: -0.075
- glycan array binding signal (z-score) [12]: -0.521
- glycan array binding signal (z-score) [13]: -0.253
- glycan array binding signal (z-score) [14]: -0.665
- glycan array binding signal (z-score) [15]: -0.667
- glycan array binding signal (z-score) [16]: -0.603
- glycan array binding signal (z-score) [17]: 0.029
- glycan array binding signal (z-score) [18]: -0.516
- glycan array binding signal (z-score) [19]: -0.505
- glycan array binding signal (z-score) [20]: -0.425
- glycan array binding signal (z-score) [21]: -0.736
- glycan array binding signal (z-score) [22]: -0.21
- glycan array binding signal (z-score) [23]: 0.852
- glycan array binding signal (z-score) [24]: -0.092
- glycan array binding signal (z-score) [25]: -0.226
- glycan array binding signal (z-score) [26]: 0.343
- glycan array binding signal (z-score) [27]: -0.419
- glycan array binding signal (z-score) [28]: -0.473
- glycan array binding signal (z-score) [29]: -0.127
- glycan array binding signal (z-score) [30]: -0.657
- glycan array binding signal (z-score) [31]: -0.021
- glycan array binding signal (z-score) [32]: -0.145
- glycan array binding signal (z-score) [33]: 0.098
- glycan array binding signal (z-score) [34]: 0.335
- glycan array binding signal (z-score) [35]: 0.036
- glycan array binding signal (z-score) [36]: -0.746
- glycan array binding signal (z-score) [37]: -0.416
- glycan array binding signal (z-score) [38]: -0.001
- glycan array binding signal (z-score) [39]: -0.228
- glycan array binding signal (z-score) [40]: 0.354
- glycan array binding signal (z-score) [41]: 0.62
- glycan array binding signal (z-score) [42]: -0.097
- glycan array binding signal (z-score) [43]: -0.368
- glycan array binding signal (z-score) [44]: 0.608
- glycan array binding signal (z-score) [45]: 1.45
